Laboratory results from publication doi:10.1101/2020.07.07.191437.
Results are given in words; binding and its absence hold for the method and conditions named. Binding seen in cells or lysates may run through a third protein. Some binding calls cover weakened binding; strength is not graded here. Tags and fused reporters may be left off the sequences shown.

Experiments:
Test in all cases: co-IP
[1] = biological target: T1, FLAG-tagged SMG7 1-633 (human) (UniProt Q92540)
T1 sequence: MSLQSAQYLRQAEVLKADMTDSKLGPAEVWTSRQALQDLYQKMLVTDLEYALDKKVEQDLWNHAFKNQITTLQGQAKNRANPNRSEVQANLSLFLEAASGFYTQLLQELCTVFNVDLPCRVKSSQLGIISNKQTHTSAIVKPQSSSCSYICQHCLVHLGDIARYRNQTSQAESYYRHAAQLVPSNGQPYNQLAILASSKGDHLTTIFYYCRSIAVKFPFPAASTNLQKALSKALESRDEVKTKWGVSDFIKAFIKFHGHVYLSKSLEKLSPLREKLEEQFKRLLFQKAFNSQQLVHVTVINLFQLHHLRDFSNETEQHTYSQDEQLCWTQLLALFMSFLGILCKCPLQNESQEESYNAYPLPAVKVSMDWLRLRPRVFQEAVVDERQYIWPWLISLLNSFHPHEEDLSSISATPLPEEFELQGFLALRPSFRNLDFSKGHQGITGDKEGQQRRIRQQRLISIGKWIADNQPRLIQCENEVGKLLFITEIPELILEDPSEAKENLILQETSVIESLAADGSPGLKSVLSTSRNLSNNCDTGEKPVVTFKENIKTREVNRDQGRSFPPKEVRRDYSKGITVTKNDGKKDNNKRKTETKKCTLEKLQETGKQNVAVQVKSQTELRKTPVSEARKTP

[2] = biological target: T2, FLAG-tagged SMG7 1-633 G100E (human) (UniProt Q92540)
T2 sequence: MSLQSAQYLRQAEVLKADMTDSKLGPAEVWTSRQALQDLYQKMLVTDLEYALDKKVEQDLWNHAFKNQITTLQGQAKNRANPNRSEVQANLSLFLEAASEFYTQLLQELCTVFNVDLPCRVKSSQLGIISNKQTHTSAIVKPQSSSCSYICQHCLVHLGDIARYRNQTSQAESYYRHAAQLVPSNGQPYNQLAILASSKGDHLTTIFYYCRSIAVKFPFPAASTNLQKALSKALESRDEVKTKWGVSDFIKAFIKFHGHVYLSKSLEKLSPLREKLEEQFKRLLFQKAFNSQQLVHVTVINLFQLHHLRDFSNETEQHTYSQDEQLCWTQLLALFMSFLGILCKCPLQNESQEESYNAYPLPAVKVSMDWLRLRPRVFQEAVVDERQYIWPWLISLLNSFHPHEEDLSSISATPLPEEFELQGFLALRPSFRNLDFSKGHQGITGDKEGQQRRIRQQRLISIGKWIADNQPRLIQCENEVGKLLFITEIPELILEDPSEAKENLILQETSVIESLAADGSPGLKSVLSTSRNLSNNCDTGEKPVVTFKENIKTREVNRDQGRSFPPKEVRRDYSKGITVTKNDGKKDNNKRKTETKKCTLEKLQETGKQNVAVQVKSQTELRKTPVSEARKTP

[3] = biological target: T3, FLAG-tagged SMG7 G100E (full length) (human) (UniProt Q92540)
T3 sequence: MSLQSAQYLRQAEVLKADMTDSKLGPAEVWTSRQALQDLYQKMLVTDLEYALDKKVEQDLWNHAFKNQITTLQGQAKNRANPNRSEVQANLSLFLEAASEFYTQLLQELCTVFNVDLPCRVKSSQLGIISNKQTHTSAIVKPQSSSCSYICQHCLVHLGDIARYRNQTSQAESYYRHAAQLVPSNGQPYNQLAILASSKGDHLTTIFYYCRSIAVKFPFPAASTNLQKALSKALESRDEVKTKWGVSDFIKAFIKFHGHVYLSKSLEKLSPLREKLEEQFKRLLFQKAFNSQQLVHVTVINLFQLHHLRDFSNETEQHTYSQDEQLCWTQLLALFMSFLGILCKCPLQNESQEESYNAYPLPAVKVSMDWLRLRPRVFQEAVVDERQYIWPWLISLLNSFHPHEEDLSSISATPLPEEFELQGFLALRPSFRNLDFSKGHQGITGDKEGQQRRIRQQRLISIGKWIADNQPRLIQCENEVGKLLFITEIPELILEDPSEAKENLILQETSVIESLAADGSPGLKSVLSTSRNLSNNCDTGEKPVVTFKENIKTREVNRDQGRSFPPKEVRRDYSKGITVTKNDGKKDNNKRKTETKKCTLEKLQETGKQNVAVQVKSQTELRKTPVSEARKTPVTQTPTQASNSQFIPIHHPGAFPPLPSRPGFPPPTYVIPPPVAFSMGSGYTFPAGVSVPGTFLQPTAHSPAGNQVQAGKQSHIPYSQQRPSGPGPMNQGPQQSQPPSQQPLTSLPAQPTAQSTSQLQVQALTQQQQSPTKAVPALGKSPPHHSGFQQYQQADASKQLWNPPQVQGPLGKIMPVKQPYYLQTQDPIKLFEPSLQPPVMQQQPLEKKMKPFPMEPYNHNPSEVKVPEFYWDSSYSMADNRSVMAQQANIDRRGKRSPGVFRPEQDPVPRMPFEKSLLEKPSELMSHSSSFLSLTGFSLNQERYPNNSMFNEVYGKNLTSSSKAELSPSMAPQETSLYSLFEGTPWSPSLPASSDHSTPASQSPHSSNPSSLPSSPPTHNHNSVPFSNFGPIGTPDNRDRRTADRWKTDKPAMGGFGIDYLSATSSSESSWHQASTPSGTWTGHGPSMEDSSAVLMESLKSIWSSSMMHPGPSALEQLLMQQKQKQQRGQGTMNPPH

[4] = biological target: T4, FLAG-tagged SMG7 wild type (human) (UniProt Q92540)
T4 sequence: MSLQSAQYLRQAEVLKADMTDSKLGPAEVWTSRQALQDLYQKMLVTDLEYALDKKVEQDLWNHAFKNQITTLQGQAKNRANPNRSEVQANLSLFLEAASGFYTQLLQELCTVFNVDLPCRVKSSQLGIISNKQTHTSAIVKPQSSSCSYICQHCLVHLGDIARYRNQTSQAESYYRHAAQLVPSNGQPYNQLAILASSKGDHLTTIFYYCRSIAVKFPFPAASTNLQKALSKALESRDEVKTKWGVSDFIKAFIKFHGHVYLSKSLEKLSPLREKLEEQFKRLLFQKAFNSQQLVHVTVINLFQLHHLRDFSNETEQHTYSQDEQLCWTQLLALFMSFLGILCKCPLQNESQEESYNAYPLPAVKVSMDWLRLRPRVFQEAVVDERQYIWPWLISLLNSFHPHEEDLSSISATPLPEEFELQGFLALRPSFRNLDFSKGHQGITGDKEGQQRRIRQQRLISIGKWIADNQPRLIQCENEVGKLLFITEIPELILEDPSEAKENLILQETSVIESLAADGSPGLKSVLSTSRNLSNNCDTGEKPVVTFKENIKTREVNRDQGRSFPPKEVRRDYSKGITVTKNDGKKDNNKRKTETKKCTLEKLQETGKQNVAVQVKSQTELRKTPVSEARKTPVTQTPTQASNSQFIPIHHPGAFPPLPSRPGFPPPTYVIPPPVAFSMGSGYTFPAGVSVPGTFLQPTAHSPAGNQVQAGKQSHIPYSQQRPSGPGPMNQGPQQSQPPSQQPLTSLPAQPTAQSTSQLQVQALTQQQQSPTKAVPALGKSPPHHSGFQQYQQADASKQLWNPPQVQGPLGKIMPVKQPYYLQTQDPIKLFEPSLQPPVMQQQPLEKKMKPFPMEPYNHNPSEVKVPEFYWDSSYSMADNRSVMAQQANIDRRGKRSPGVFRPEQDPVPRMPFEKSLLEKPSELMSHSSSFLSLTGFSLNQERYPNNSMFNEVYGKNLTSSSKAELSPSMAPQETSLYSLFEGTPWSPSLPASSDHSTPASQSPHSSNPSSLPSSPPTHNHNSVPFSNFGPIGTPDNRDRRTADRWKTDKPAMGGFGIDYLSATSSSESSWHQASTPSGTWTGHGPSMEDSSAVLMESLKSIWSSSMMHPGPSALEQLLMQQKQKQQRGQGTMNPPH

Measured: binding

B1: UPF1 (protein, UniProt Q92900 1-1129)
chain: MSVEAYGPSSQTLTFLDTEEAELLGADTQGSEFEFTDFTLPSQTQTPPGGPGGPGGGGAGGPGGAGAGAAAGQLDAQVGPEGILQNGAVDDSVAKTSQLLAELNFEEDEEDTYYTKDLPIHACSYCGIHDPACVVYCNTSKKWFCNGRGNTSGSHIVNHLVRAKCKEVTLHKDGPLGETVLECYNCGCRNVFLLGFIPAKADSVVVLLCRQPCASQSSLKDINWDSSQWQPLIQDRCFLSWLVKIPSEQEQLRARQITAQQINKLEELWKENPSATLEDLEKPGVDEEPQHVLLRYEDAYQYQNIFGPLVKLEADYDKKLKESQTQDNITVRWDLGLNKKRIAYFTLPKTDSGNEDLVIIWLRDMRLMQGDEICLRYKGDLAPLWKGIGHVIKVPDNYGDEIAIELRSSVGAPVEVTHNFQVDFVWKSTSFDRMQSALKTFAVDETSVSGYIYHKLLGHEVEDVIIKCQLPKRFTAQGLPDLNHSQVYAVKTVLQRPLSLIQGPPGTGKTVTSATIVYHLARQGNGPVLVCAPSNIAVDQLTEKIHQTGLKVVRLCAKSREAIDSPVSFLALHNQIRNMDSMPELQKLQQLKDETGELSSADEKRYRALKRTAERELLMNADVICCTCVGAGDPRLAKMQFRSILIDESTQATEPECMVPVVLGAKQLILVGDHCQLGPVVMCKKAAKAGLSQSLFERLVVLGIRPIRLQVQYRMHPALSAFPSNIFYEGSLQNGVTAADRVKKGFDFQWPQPDKPMFFYVTQGQEEIASSGTSYLNRTEAANVEKITTKLLKAGAKPDQIGIITPYEGQRSYLVQYMQFSGSLHTKLYQEVEIASVDAFQGREKDFIILSCVRANEHQGIGFLNDPRRLNVALTRARYGVIIVGNPKALSKQPLWNHLLNYYKEQKVLVEGPLNNLRESLMQFSKPRKLVNTINPGARFMTTAMYDAREAIIPGSVYDRSSQGRPSSMYFQTHDQIGMISAGPSHVAAMNIPIPFNLVMPPMPPPGYFGQANGPAAGRGTPKGKTGRGGRQKNRFGLPGPSQTNLPNSQASQDVASQPFSQGALTQGYISMSQPSQMSQPGLSQPELSQDSYLGDEFKSQIDVALSQDSTYQGERAYQHGGVTGLSQY
binds: all assays above
